Experimental findings from patent publication US7589121B2, “Use of furan alkyls for preparing a drug for treating obesity and cosmetically treating overweight” (priority 2004, dated 2009) are described below.

Data set [1] concerns mice fattened on a high fat/high sucrose diet (HF/HS). In words: Body temperature and energy expenditure (indirect calorimetry). Format: in vivo.
For data set [2] the test system is unchanged. In words: Food intake of mice on HF/HS diet. Format: in vivo. Conditions: for Food: HF/HS diet, TZD 10 mg/kg/dy.

As for `CN(CCOc1ccc(CC2SC(=O)NC2=O)cc1)c1ccccn1` (stereo not shown) [TZD, Rosiglitazone], the Body temperature entry in data set [1] (curative group) is reported as “Slight increase”; in data set [1] (preventive group) it was “no change”. The “Energy expenditure (calorimetry)” value in data set [1] (weeks 21 and 22) is reported as “no change”. This compound also returned a food intake in data set [2] (curative group, TZD, control group 4 g) of 3 g. In addition, the Food entry in data set [2] (curative) and in data set [2] (preventive) was “↓” throughout. For the same compound, the mean food consumption in data set [2] (preventive group, TZD (ditto)) was 3 G.
